From PubChem BioAssay (Tox21)
Inconclusive results, whose numbers are uncertain, are shown with a selection of clear calls. Potencies of inconclusive entries are doubtful fits and often do not repeat. The source made the active and inactive calls. The call rests on the fitted dose curve; in most records, active means well fitted cell-killing curve with a large enough effect in the repeat runs; inconclusive means weak or mixed curves, or effect the other way; inactive means flat fitted curve, though single readings scatter.

Assay: cAMP Responsive Elements (CRE) small molecule agonists, cell-based qHTS assay: qHTS cell viability counter screen (AID 2060914); further: nearly all actives have a fitted effect of over 50% in size
Settings: CRE-bla HEK293T viability, CellTiter-Glo luminescence, 5 h; series mostly up to 92.4 µM
Outline: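 Cytotoxicity counter screen multiplexed with the CRE-bla reporter assay in HEK 293T cells: 3 h compound exposure at 37 °C, followed by CellTiter-Glo luminescence measured in the same wells.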
Potency means the concentration at half of the fitted maximal effect.

SMILES | Potency
CCCCOC(=O)CC(CC(=O)OCCCC)(OC(C)=O)C(=O)OCCCC | inconclusive: 12.2 µM [cytotoxic, full curve, poor fit]
C(/C=C/C=C/Nc1ccccc1)=Nc1ccccc1 | inactive
CC(C)CCCC(C)(C)O | inconclusive: 61.1 µM [rising, single point]
COC(=O)[C@H](Cc1ccccc1)NC(=O)[C@@H](N)CC(=O)O | inconclusive: 7.5 µM [cytotoxic, single point]
CN(C/C=C/C#CC(C)(C)C)Cc1cccc2ccccc12 | inconclusive: 33.5 µM [cytotoxic, single point]
Oc1ccc2ccccc2c1N=Nc1ccccc1 | inconclusive: 4.32 µM [cytotoxic, full curve, poor fit]
CC1=CCCC(C)(C)C12CCC(C)O2 (centres undefined) | inconclusive: 27.3 µM [cytotoxic, partial curve, poor fit]
O=C1CCC(=O)N1 | inactive
OCC(CO)(CO)COCC(CO)(CO)CO | inconclusive: 0.611 µM [cytotoxic, single point]
CCC(C)NC(N)=O (centres undefined) | inconclusive: 0.611 µM [cytotoxic, single point]
O=c1cc(O)c(Cl)c[nH]1 | inactive
CCCC(=O)O[C@]1(C(=O)CCl)[C@@H](C)C[C@H]2[C@@H]3CCC4=CC(=O)C=C[C@]4(C)[C@@]3(F)C(=O)C[C@@]21C | inconclusive: 7.5 µM [cytotoxic, single point]
CC/C=C\CC1=C(C)CCC1=O | inactive
CC(C)[N+](C)(CCOC(=O)C1c2ccccc2Oc2ccccc21)C(C)C | inconclusive: 11.9 µM [cytotoxic, single point]
